Reference: PubChem BioAssay AID1259308 (NCATS, 2017)
Assay: 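Knock-downs that increase output of a recombinant reporter protein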 (primary screen). Cells: human HEK293 embryonic kidney cells stably expressing firefly luciferase (HEK-CMV-Luc2-Hygro). Reagents: single siRNA against human genes, 0.8 pmol siRNA per well. Time to read-out: 72 h. Detection: 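Luciferase light (ONE-Glo) measured on one replicate plate set and viability (CellTiter-Glo) on the other, scaled to a negative control siRNA, with robust z-scores and luciferase per cell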. Scale: total luciferase, z-score and total luciferase, % of control: higher = more reporter protein produced. Active means: 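An siRNA counts as active if its total luciferase robust z-score exceeds 3; genes with two or more such siRNAs out of three were retested with fresh siRNAs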. Calls: active = raised luciferase; inactive = no rise.
Here is one part, drawn at random, of about 59,000 deposited reagents. About 1,510 of all reagents (2.6%) count as active. 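Calls use total luciferase alone and ignore viability, so some active siRNAs may act by altering cell number.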 Unmarked entries are inactive. Reagents against one gene are numbered here. Not all columns of the deposit are shown.

{"gene symbol": "RNASEK (ribonuclease K)", "reagent": 1, "total luciferase, z-score": -0.193, "total luciferase, % of control": 78.1}
{"gene symbol": "RNASEK (ribonuclease K)", "reagent": 2, "total luciferase, z-score": 0.193, "total luciferase, % of control": 85.7}
{"gene symbol": "RNASEK (ribonuclease K)", "reagent": 3, "total luciferase, z-score": 0.666, "total luciferase, % of control": 95.1}
{"gene symbol": "C4orf54 (chromosome 4 open reading frame 54)", "reagent": 1, "total luciferase, z-score": 0.272, "total luciferase, % of control": 87.3}
{"gene symbol": "C4orf54 (chromosome 4 open reading frame 54)", "reagent": 2, "total luciferase, z-score": "3.02 (active)", "total luciferase, % of control": 142}
{"gene symbol": "C4orf54 (chromosome 4 open reading frame 54)", "reagent": 3, "total luciferase, z-score": -0.0144, "total luciferase, % of control": 81.6}
{"gene symbol": "ATP5MC3 (ATP synthase membrane subunit c locus 3)", "reagent": 1, "total luciferase, z-score": -0.359, "total luciferase, % of control": 74.7}
{"gene symbol": "ATP5MC3 (ATP synthase membrane subunit c locus 3)", "reagent": 2, "total luciferase, z-score": 0.955, "total luciferase, % of control": 101}
{"gene symbol": "ATP5MC3 (ATP synthase membrane subunit c locus 3)", "reagent": 3, "total luciferase, z-score": -0.609, "total luciferase, % of control": 69.8}
{"gene symbol": "MECOM (MDS1 and EVI1 complex locus)", "reagent": 1, "total luciferase, z-score": -1.63, "total luciferase, % of control": 49.5}
{"gene symbol": "MECOM (MDS1 and EVI1 complex locus)", "reagent": 2, "total luciferase, z-score": 1.88, "total luciferase, % of control": 119}
{"gene symbol": "MECOM (MDS1 and EVI1 complex locus)", "reagent": 3, "total luciferase, z-score": "3.97 (active)", "total luciferase, % of control": 161}
{"gene symbol": "MECOM (MDS1 and EVI1 complex locus)", "reagent": 4, "total luciferase, z-score": 0.442, "total luciferase, % of control": 90.7}
{"gene symbol": "MECOM (MDS1 and EVI1 complex locus)", "reagent": 5, "total luciferase, z-score": 1.09, "total luciferase, % of control": 104}
{"gene symbol": "MECOM (MDS1 and EVI1 complex locus)", "reagent": 6, "total luciferase, z-score": -0.613, "total luciferase, % of control": 69.7}
{"gene symbol": "MAP2K1 (mitogen-activated protein kinase kinase 1)", "reagent": 1, "total luciferase, z-score": -0.103, "total luciferase, % of control": 79.8}
{"gene symbol": "MAP2K1 (mitogen-activated protein kinase kinase 1)", "reagent": 2, "total luciferase, z-score": -0.477, "total luciferase, % of control": 72.4}
{"gene symbol": "MAP2K1 (mitogen-activated protein kinase kinase 1)", "reagent": 3, "total luciferase, z-score": -0.472, "total luciferase, % of control": 72.5}
{"gene symbol": "GPR171 (G protein-coupled receptor 171)", "reagent": 1, "total luciferase, z-score": -0.38, "total luciferase, % of control": 74.3}
{"gene symbol": "GPR171 (G protein-coupled receptor 171)", "reagent": 2, "total luciferase, z-score": -1.52, "total luciferase, % of control": 51.7}
{"gene symbol": "GPR171 (G protein-coupled receptor 171)", "reagent": 3, "total luciferase, z-score": 0.36, "total luciferase, % of control": 89}
